These are yes or no findings as the source states them, for the method shown. A result given as binding can be weak or reduced; the word gives no strength. Tags and fused reporters may be left off the sequences shown.
What was measured:
[1] = molecular target: T1, DegU-His6 fusion protein (unphosphorylated) (Bacillus subtilis) (UniProt P13800); experiment: native gel or EMSA
T1 sequence: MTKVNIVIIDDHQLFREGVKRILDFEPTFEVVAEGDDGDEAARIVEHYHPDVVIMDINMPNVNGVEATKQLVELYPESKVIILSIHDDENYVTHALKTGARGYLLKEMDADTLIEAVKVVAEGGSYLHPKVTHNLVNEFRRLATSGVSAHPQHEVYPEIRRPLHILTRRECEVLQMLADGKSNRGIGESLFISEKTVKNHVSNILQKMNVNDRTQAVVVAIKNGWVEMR

[2] = molecular target: T2, DegU-P (DegU-His6 phosphorylated by DegS-His6 and ATP) (Bacillus subtilis) (UniProt P13800); experiment: native gel or EMSA
T2 sequence (chain, phosphorylated by DegS and ATP (residue not printed)): T1 sequence

With “GST-SwrA fusion protein (Bacillus subtilis)” the binding [1] was “binds” and the binding [2] was “binds”.

— article doi:10.1101/2023.08.04.552067
